Data: the supplement of paper PMC6078165

Tested on: MDAMB436
Experiment: relative JC-1 red fluorescence (viability) vs pre-drug, coculture with fibroblast (fraction); higher = more viable cancer cells
Protocol: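 JC-1 labelled TNBC cells cocultured 1:1 (1,500 cells each) with CellTrace Violet stained primary or stromal fibroblasts in 384-well plates in FluoroBrite medium, treated with one of 42 anticancer drugs at 0.1, 1, 10 or 100 uM. JC-1 red fluorescence (mitochondrial integrity in cancer cells only) was read by plate reader every 8 h for 72 h. Values are normalised to each well's pre-drug value. The stock of one drug was tenfold lower, so its dose labels may be too high.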

CCN(CC)CCNC(=O)c1c(C)[nH]c(/C=C2\C(=O)Nc3ccc(F)cc32)c1C [Sunitinib]
relative JC-1 red fluorescence
Details | 8 h | 16 h | 24 h | 32 h | 40 h | 48 h | 56 h | 64 h | 72 h
0.1 µM, coculture fibroblast: C12385 | 0.752 | 0.7136 | 0.679 | 0.6059 | 0.5629 | 0.548 | 0.539 | 0.532 | 0.536
0.1 µM, coculture fibroblast: H6013 | 0.81 | 0.783 | 0.771 | 0.766 | 0.758 | 0.788 | 0.755 | 0.734 | 0.701
0.1 µM, coculture fibroblast: H6019 | 0.737 | 0.7 | 0.682 | 0.609 | 0.567 | 0.549 | 0.522 | 0.488 | 0.467
0.1 µM, coculture fibroblast: H6076 | 0.753 | 0.697 | 0.701 | 0.66 | 0.663 | 0.638 | 0.652 | 0.649 | 0.639
0.1 µM, coculture fibroblast: H6231 | 0.755 | 0.704 | 0.731 | 0.641 | 0.625 | 0.592 | 0.5877 | 0.571 | 0.551
0.1 µM, coculture fibroblast: HADF | 0.7814 | 0.785 | 0.767 | 0.735 | 0.735 | 0.783 | 0.727 | 0.737 | 0.701
0.1 µM, coculture fibroblast: HCFa | 0.7918 | 0.765 | 0.735 | 0.716 | 0.701 | 0.725 | 0.667 | 0.656 | 0.609
0.1 µM, coculture fibroblast: HCPF | 0.795 | 0.758 | 0.767 | 0.703 | 0.692 | 0.661 | 0.646 | 0.63 | 0.616
0.1 µM, coculture fibroblast: HHSteC | 0.807 | 0.788 | 0.774 | 0.735 | 0.738 | 0.75 | 0.7 | 0.684 | 0.628
0.1 µM, coculture fibroblast: HMF | 0.756 | 0.712 | 0.696 | 0.656 | 0.645 | 0.623 | 0.626 | 0.605 | 0.602
0.1 µM, coculture fibroblast: HPFa | 0.854 | 0.8137 | 0.781 | 0.743 | 0.741 | 0.748 | 0.68 | 0.663 | 0.589
0.1 µM, coculture fibroblast: HUF | 0.81 | 0.745 | 0.732 | 0.658 | 0.607 | 0.586 | 0.568 | 0.563 | 0.551
0.1 µM, coculture fibroblast: Hs5 | 0.76 | 0.734 | 0.732 | 0.691 | 0.688 | 0.654 | 0.663 | 0.633 | 0.625
0.1 µM, coculture fibroblast: Hs27A | 0.817 | 0.793 | 0.787 | 0.764 | 0.748 | 0.812 | 0.722 | 0.705 | 0.628
0.1 µM, coculture fibroblast: Hs343T | 0.721 | 0.68 | 0.666 | 0.621 | 0.6 | 0.576 | 0.576 | 0.561 | 0.558
0.1 µM, coculture fibroblast: WS1 | 0.737 | 0.703 | 0.688 | 0.612 | 0.586 | 0.57 | 0.555 | 0.537 | 0.537
1 µM, coculture fibroblast: C12385 | 0.791 | 0.714 | 0.684 | 0.601 | 0.554 | 0.528 | 0.501 | 0.478 | 0.467
1 µM, coculture fibroblast: H6013 | 0.8435 | 0.863 | 0.884 | 0.917 | 0.809 | 0.904 | 0.816 | 0.84 | 0.924
1 µM, coculture fibroblast: H6019 | 0.79 | 0.779 | 0.799 | 0.737 | 0.723 | 0.703 | 0.672 | 0.635 | 0.607
1 µM, coculture fibroblast: H6076 | 0.852 | 0.811 | 0.836 | 0.803 | 0.792 | 0.771 | 0.774 | 0.768 | 0.746
1 µM, coculture fibroblast: H6231 | 0.809 | 0.746 | 0.7658 | 0.681 | 0.661 | 0.6193 | 0.611 | 0.59 | 0.565
1 µM, coculture fibroblast: HADF | 0.829 | 0.782 | 0.755 | 0.731 | 0.725 | 0.758 | 0.699 | 0.697 | 0.657
1 µM, coculture fibroblast: HCFa | 0.784 | 0.7754 | 0.743 | 0.714 | 0.693 | 0.716 | 0.646 | 0.637 | 0.58
1 µM, coculture fibroblast: HCPF | 0.823 | 0.778 | 0.778 | 0.716 | 0.695 | 0.661 | 0.643 | 0.618 | 0.59
1 µM, coculture fibroblast: HHSteC | 0.819 | 0.792 | 0.759 | 0.729 | 0.717 | 0.73 | 0.667 | 0.652 | 0.591
1 µM, coculture fibroblast: HMF | 0.804 | 0.765 | 0.772 | 0.715 | 0.692 | 0.654 | 0.658 | 0.64 | 0.621
1 µM, coculture fibroblast: HPFa | 0.865 | 0.802 | 0.775 | 0.734 | 0.724 | 0.729 | 0.663 | 0.642 | 0.58
1 µM, coculture fibroblast: HUF | 0.831 | 0.7376 | 0.71422 | 0.6369 | 0.582 | 0.5521 | 0.517 | 0.5 | 0.489
1 µM, coculture fibroblast: Hs5 | 0.811 | 0.773 | 0.777 | 0.723 | 0.711 | 0.671 | 0.668 | 0.636 | 0.615
1 µM, coculture fibroblast: Hs27A | 0.881 | 0.796 | 0.776 | 0.753 | 0.731 | 0.79 | 0.696 | 0.689 | 0.621
1 µM, coculture fibroblast: Hs343T | 0.808 | 0.773 | 0.768 | 0.727 | 0.71 | 0.676 | 0.664 | 0.654 | 0.642
1 µM, coculture fibroblast: WS1 | 0.742 | 0.693 | 0.675 | 0.6031 | 0.5689 | 0.556 | 0.532 | 0.514 | 0.507

The reference is the same well before dosing, and untreated signal decays as well.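 Fibroblast labels denote human fibroblasts, mainly primary ones from uterus (C12385, HUF), lung (H6013), bone (Hs27A), adrenal (HADF) and skin (WS1), plus mammary HMF and breast cancer-associated Hs343T. Cancer cells are basal-like or mesenchymal-like triple-negative breast cancer lines. A hit is a response shift exceeding 3x replicate standard deviation. The tissue of the other fibroblasts is not given here.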
